# Source: PubChem BioAssay AID504834 (National Center for Advancing Translational Sciences (NCATS), 2011)
# Out of some 320,000 compounds screened, about 22,000 (6.9%) were called active. The inconclusive results got no clear call from the source; some entries with a clear call stand among them for comparison. The call rests on the fitted dose curve; in most records, active means well fitted inhibition curve with a large enough effect; inconclusive means small, poorly fitted or top-dose-only effect, or another doubt; inactive means no such curve, though single readings can be large or run the other way. A potency beside an inconclusive call is a rough fit, not a confirmed value.
# Experiment: Primary qHTS for delayed death inhibitors of the malarial parasite plastid, 96 hour incubation
# Conditions: P. falciparum luciferase reporter growth; series mostly up to 28.7 µM; activity change, negative = inhibition: at the top concentration
# In short: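 Luminescence readout: decreased luciferase signal marks inhibited growth of reporter-expressing P. falciparum in infected red cells (2% hematocrit, 0.05% parasitemia final), exposed to compound two generations (96 h, 37 C, 5% CO2).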
# On the % scale 0 is the no-effect control and ±100 the full control effect; potency means the concentration at half of the fitted maximal effect.
SMILES,Potency,"activity change, negative = inhibition"
Cc1ccc(CNC(=O)C2CCC(=O)N(CCc3ccccn3)C2)s1 (stereo not drawn),"inconclusive: 16.5 µM [inhibitor, single point]",–
O=C(CC(Sc1ccccc1)c1cccs1)c1ccco1 (stereo not drawn),–,inactive: 80.4%
CCCc1cc(-c2n[nH]c(=S)n2-c2cccc(C)c2)cs1,"inconclusive: 11.7 µM [inhibitor, partial curve, poor fit]",–
CC1CC(C)CN(S(=O)(=O)c2ccc(NN)nc2)C1 (stereo not drawn),"inconclusive: 14.7 µM [inhibitor, single point]",–
C=CCOc1c(Cl)cc(CNc2ccc(C)c(Cl)c2)cc1OC,"inconclusive: 18.5 µM [inhibitor, single point]",–
COc1ccc(-c2cn3cc(C)ccc3n2)cc1OC,–,inactive: 129%
Oc1ccccc1-c1cc(C(F)(F)F)nc(-c2ccccc2)n1,"inconclusive: 13.1 µM [inhibitor, single point]",–
CCOC(=O)c1c(NC(=O)c2ccncc2)sc(C)c1C,"inconclusive: 18.5 µM [inhibitor, single point]",–
C/C(=C\C(=O)c1ccc(C)o1)Nc1ccc(C(=O)O)cc1C,"inconclusive: 18.5 µM [inhibitor, single point]",–
CC(=O)N1CCc2c(sc(NC(=O)CS(=O)(=O)c3ccc(F)cc3)c2C#N)C1,"inconclusive: 11.7 µM [inhibitor, single point]",–
Cc1noc(C(=O)Nc2sc3c(c2C#N)CCC3)c1Cl,–,inactive: 21.6%
COc1ccccc1NC(=O)c1ccc(-c2ccccc2F)o1,–,inactive: 5.74%
COc1cc(CCCN2C(=S)NC[C@@H]2c2ccccc2)cc(OC)c1OC,"inconclusive: 13.1 µM [inhibitor, single point]",–
CC(C)Oc1ccc(C(=O)NC2CCSc3ccccc32)cc1 (stereo not drawn),"inconclusive: 18.5 µM [inhibitor, single point]",–
O=c1[nH]c2c(c3c1CCCC3)CCCC2,–,inactive: 0%
CCCCNC(=O)COc1ccccc1C(=O)c1cc(C#N)c(=O)n(CCOC)c1,"inconclusive: 18.5 µM [inhibitor, single point]",–
CCOC(=O)c1sc2nc(SCC#N)n(CC3CCCO3)c(=O)c2c1C (stereo not drawn),"inconclusive: 0.0026 µM [inhibitor, full curve, poor fit]",–
N/C(=N/O)c1ccccc1N1CCC(Cc2ccccc2)CC1,"inconclusive: 10.4 µM [inhibitor, partial curve, poor fit]",–
O=C(Nc1ccc(NC(=O)C2CC2)nc1)c1ccccc1F,–,inactive: -24.6%
CC1(C)Cc2c(c(N3CCCC3)nc3sc(C(=O)Nc4ccccc4)c(N)c23)CO1,active: 13.1 µM,–
COc1ccc([C@H]2CC(=O)C=C(c3cccc4c3sc3ccccc34)C2)cc1OC,"inconclusive: 10.4 µM [inhibitor, single point]",–
CC(NC(=O)C1CCC(=O)N1Cc1ccc(F)cc1)c1ccc2c(c1)OCCO2 (stereo not drawn),–,inactive: 0%
COCCNc1ccc([N+](=O)[O-])cc1C(=O)Nc1cccc(C)n1,"inconclusive: 1.85 µM [inhibitor, partial curve, poor fit]",–
COC(=O)CSc1nnc(-c2ccc(S(=O)(=O)N3CCCC3)cc2)o1,"inconclusive: 13.1 µM [inhibitor, partial curve, poor fit]",–

# Structures above with a furan ring, fused or not, in the order listed:
SMILES,Potency,"activity change, negative = inhibition"
O=C(CC(Sc1ccccc1)c1cccs1)c1ccco1 (stereo not drawn),–,inactive: 80.4%
C/C(=C\C(=O)c1ccc(C)o1)Nc1ccc(C(=O)O)cc1C,"inconclusive: 18.5 µM [inhibitor, single point]",–
COc1ccccc1NC(=O)c1ccc(-c2ccccc2F)o1,–,inactive: 5.74%

# (listing goes on)

SMILES,Potency,"activity change, negative = inhibition"
O=S(=O)(N1CCOCC1)N1CCOCC1,–,inactive: -6.3%
CCn1nc(C(=O)Nc2nc3ccccc3[nH]2)c2ccccc2c1=O,–,inactive: -12.8%
Cc1cc(OC(=O)c2ccco2)c2c3c(c(=O)oc2c1)CCCC3,active: 3.7 µM,–
Cc1cc(-c2ccc(C)c(S(=O)(=O)N3CCN(c4ccccn4)CC3)c2)on1,"inconclusive: 18.5 µM [inhibitor, single point]",–
COc1ccc(N2CCN(C(=O)CCCn3nnnc3CN3CCOCC3)C(C)C2)cc1 (stereo not drawn),active: 11.7 µM,–
NC(=O)C1CCN(C(=O)c2ccc(NS(=O)(=O)c3ccc(Br)s3)cc2)CC1,–,inactive: 11.4%
COc1ccc(C)cc1NC(=O)CSc1ccc(-c2ccco2)nn1,"inconclusive: 18.5 µM [inhibitor, single point]",–
O=C(O)C(Cc1cn[nH]n1)=NO,–,inactive: 23.2%
CNC(=O)CCn1nc(-c2ccccc2)c2ccccc2c1=O,active: 14.7 µM,–
CCCCCCC1CC(CC(=O)Nc2ccc([N+](=O)[O-])cc2)C(=O)O1 (stereo not drawn),"inconclusive: 10.4 µM [inhibitor, partial curve, poor fit]",–
CCSC1=NC2(CCCCC2)Nc2sc3c(c21)CCCC3,active: 2.62 µM,–
COc1cc(/C=C\C(=O)NCc2ccc3c(c2)cc(C)n3C)cc(OC)c1OC,active: 7.38 µM,–
CC1(C)Cc2ccccc2C(=NCC(=O)O)N1,–,inactive: 23.4%
CC1CN(C(=O)CCc2ccccc2)C(C)CN1C(=O)CCc1ccccc1 (stereo not drawn),"inconclusive: 4.15 µM [inhibitor, single point]",–
COC(=O)CCC(=O)N(CCN(C(=O)CCC(=O)OC)c1ccccc1)c1ccccc1,"inconclusive: 13.1 µM [inhibitor, single point]",–
CC(C)(C)n1nnnc1C(c1ccc(C(F)(F)F)cc1)N(Cc1ccccc1)Cc1ccco1 (stereo not drawn),–,inactive: 8.87%
O=C(NC(=S)Nc1ccccc1Cl)c1cnn2c(C(F)(F)F)cc(C(F)(F)F)nc12,"inconclusive: 0.928 µM [inhibitor, full curve, poor fit]",–
CC(/C=N/NC(=O)c1ccco1)=C\c1ccccc1,–,inactive: 41.6%
O=C(COc1ccccc1)NCCSCc1ccco1,–,inactive: -12.6%
Cc1ccc(S(=O)(=O)NCCNC(=O)c2cc(OCC(F)(F)F)ccc2OCC(F)(F)F)cc1,"inconclusive: 9.28 µM [inhibitor, partial curve]",–
O=C(OCc1ccccc1)N1CCOCCOCCN(C(=O)OCc2ccccc2)CCOCCOCC1,"inconclusive: 0.522 µM [inhibitor, full curve]",–
CCCNC(=O)c1c(N)n(-c2ccc3c(c2)OCO3)c2nc3ccccc3nc12,active: 4.15 µM,–
CCOC(=O)c1c(S(=O)(=O)NCC(=O)Nc2ccc(F)cc2F)c(C)n(C)c1C,"inconclusive: 18.5 µM [inhibitor, single point]",–
CCN(CC)S(=O)(=O)c1ccc(N2CCOCC2)c(NC(=O)C2CCCO2)c1 (stereo not drawn),active: 8.28 µM,–
